Over roughly 33,000 sequences, “E-score (-0.5 to 0.5)” has its median near -0.0059; the highest 2% begin near 0.26. This is one part of the list.
target: T1, Cin5 (UniProt P40917); test: PBM E-score (8-mer binding enrichment) (E-score (-0.5 to 0.5)); higher = stronger / more preferred TF binding; conditions: protein concentration: 100 nM; construct: GST-full length
T1 sequence: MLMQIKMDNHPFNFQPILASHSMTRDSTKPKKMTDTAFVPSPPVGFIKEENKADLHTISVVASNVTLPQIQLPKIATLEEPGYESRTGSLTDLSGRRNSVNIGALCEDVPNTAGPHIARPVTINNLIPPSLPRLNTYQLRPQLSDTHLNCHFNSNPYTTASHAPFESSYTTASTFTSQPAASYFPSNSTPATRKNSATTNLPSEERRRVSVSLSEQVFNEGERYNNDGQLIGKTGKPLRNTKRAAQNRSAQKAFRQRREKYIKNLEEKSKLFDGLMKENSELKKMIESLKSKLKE
Procedure, shortened: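 Universal all-10-mer Agilent arrays, fresh or stripped once, were converted to double-stranded form by primer extension. GST-tagged yeast transcription factors from PURExpress in vitro transcription/translation, full-length or DNA-binding domain only, were applied at about 100-200 nM and detected with fluorescent anti-GST. After masliner normalisation, the Universal PBM Analysis Suite scored each ungapped eight-base word together with its reverse complement by E-score.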

Going from AATCGGGC to GGATTGCC, the “PBM E-score” value falls from -0.027 to -0.111.

First: ATTTAAAT
Second: ACACGAGC
The “PBM E-score” value of the first is higher: 0.21 for the first, -0.0543 for the second.

Compared with ATGACTCG, AACTTAGC is higher in “PBM E-score” value: -0.167 for the first, -0.0121 for the second.

Compared with ACAATCCA, AGATAAAG is lower in “PBM E-score” value: 0.209 for the first, 0.0515 for the second.

Going from AGTGTTTA to CAGCTGCC, the “PBM E-score” value falls from 0.178 to -0.0182.

Going from AGCCAAGA to ATTTCGGC, the “PBM E-score” value falls from 0.0653 to 0.0403.

Going from CCCTTTGC to AGTGACGG, the “PBM E-score” value rises from 0.0273 to 0.0763.

Compared with ACTTTGCC, AGAGAAAA is lower in “PBM E-score” value: 0.0713 for the first, 0.0608 for the second.

Compared with GTATATAA, ATTGGACG is lower in “PBM E-score” value: 0.222 for the first, 0.0343 for the second.

Going from GTCAGTGA to TCCGATCA, the “PBM E-score” value rises from -0.0149 to 0.112.

Going from ACATATAT to ACGACGGC, the “PBM E-score” value falls from 0.21 to -0.108.

Compared with CACTACGG, ATGGATTC is lower in “PBM E-score” value: 0.00482 for the first, -0.0177 for the second.

Compared with AACCCCGG, ACCCCTGA is higher in “PBM E-score” value: -0.176 for the first, 0.00839 for the second.

First: ACTCTGTG
Second: CCACATCA
The “PBM E-score” value of the first is lower: 0.0463 for the first, 0.147 for the second.

First: AAGGTCAT
Second: AAAAAAGT
The “PBM E-score” value of the first is lower: -0.0122 for the first, 0.0794 for the second.

Going from CTGTAACA to CGGTGCCC, the “PBM E-score” value falls from -0.0859 to -0.259.

First: AATTGAGT
Second: CAATGTCA
The “PBM E-score” value of the first is higher: 0.205 for the first, 0.136 for the second.

Going from ACTATCGG to CTTCCGTA, the “PBM E-score” value rises from 0.0455 to 0.192.

Compared with TCACGGCA, CCGAGGCG is lower in “PBM E-score” value: 0.09 for the first, -0.154 for the second.

Compared with TGGACTAA, AGCAAAAA is higher in “PBM E-score” value: 0.0142 for the first, 0.0923 for the second.

First: ACACACGT
Second: ATCCAAGG
The “PBM E-score” value of the first is lower: -0.0545 for the first, 0.00453 for the second.

Compared with GGATGACA, CTTAGTTA is lower in “PBM E-score” value: 0.212 for the first, 0.139 for the second.

First: ACAGTCGG
Second: TAACACGA
The “PBM E-score” value of the first is lower: -0.0373 for the first, 0.117 for the second.

Going from AGTCCTAA to CATTCCAC, the “PBM E-score” value rises from -0.212 to 0.0242.

Going from AACCATAG to GGCAAGCA, the “PBM E-score” value falls from -0.109 to -0.188.

Compared with ACTGTGAC, CTGCTCAA is lower in “PBM E-score” value: 0.106 for the first, -0.156 for the second.

Compared with GGCTTAGA, AACTCCAG is lower in “PBM E-score” value: -0.133 for the first, -0.151 for the second.

First: CTGGGACC
Second: CCGCGATC
The “PBM E-score” value of the first is lower: -0.316 for the first, 0.051 for the second.

First: GCGGAAGC
Second: AATAAGGA
The “PBM E-score” value of the first is lower: -0.177 for the first, -0.0468 for the second.

Compared with ATTTAAAG, AGTTGGCA is lower in “PBM E-score” value: 0.0881 for the first, 0.00307 for the second.

First: ACTTCACT
Second: GCAATGAA
The “PBM E-score” value of the first is lower: 0.128 for the first, 0.208 for the second.

First: GTGATAGA
Second: AGGTCAGG
The “PBM E-score” value of the first is higher: -0.026 for the first, -0.176 for the second.

Compared with ATCTGGAC, GGATTTCA is higher in “PBM E-score” value: -0.276 for the first, 0.155 for the second.

Compared with ATTTTAGC, TATGGGCA is lower in “PBM E-score” value: -0.00206 for the first, -0.063 for the second.

Compared with CGCGTGTC, TGTTTAAA is higher in “PBM E-score” value: 0.0724 for the first, 0.126 for the second.

Compared with GCGGCCCC, GAAAAGCC is higher in “PBM E-score” value: -0.319 for the first, -0.137 for the second.

Going from ATCATACA to GAACAAGC, the “PBM E-score” value falls from 0.205 to 0.0364.

Compared with ATCATTAG, ACCTGGTA is lower in “PBM E-score” value: 0.136 for the first, -0.0843 for the second.

Compared with ATTAGGTG, ACAGCTAA is lower in “PBM E-score” value: 0.131 for the first, -0.122 for the second.

Compared with CGCTCATC, GCGGAAGA is higher in “PBM E-score” value: -0.0643 for the first, 0.0917 for the second.

Compared with CTTGGTCA, GCACGCTA is lower in “PBM E-score” value: 0.0155 for the first, -0.127 for the second.

First: AGGGCTAC
Second: ATGGGTCC
The “PBM E-score” value of the first is lower: -0.235 for the first, 0.0118 for the second.

Going from AGCAGCTC to CAGATCGC, the “PBM E-score” value rises from -0.0828 to -0.023.

Compared with AGCGGGAG, GGGTCACC is lower in “PBM E-score” value: -0.135 for the first, -0.297 for the second.

First: ATATCCCC
Second: CGGTCACG
The “PBM E-score” value of the first is higher: 0.0837 for the first, -0.125 for the second.

Going from GCCGGCTA to AGCAAACC, the “PBM E-score” value rises from -0.142 to 0.186.

Going from ACGGTCCC to CTGACGAA, the “PBM E-score” value rises from -0.338 to 0.185.

Compared with AGAGTCGA, CCCCACCA is higher in “PBM E-score” value: -0.00566 for the first, 0.0733 for the second.

First: ATGGGATC
Second: GACGCTAA
The “PBM E-score” value of the first is higher: 0.0284 for the first, -0.147 for the second.

Going from GCACTGCA to ATCTAGTC, the “PBM E-score” value rises from -0.0484 to 0.0253.

First: AAACTTAC
Second: AAAACTGT
The “PBM E-score” value of the first is lower: 0.0915 for the first, 0.138 for the second.

Compared with CGTTATGA, AGCTAAAC is lower in “PBM E-score” value: -0.00703 for the first, -0.0522 for the second.

First: CGTCCTCC
Second: ACGCGAAA
The “PBM E-score” value of the first is lower: -0.139 for the first, 0.203 for the second.

Compared with CTCGATCA, AGTTGATA is higher in “PBM E-score” value: 0.0224 for the first, 0.148 for the second.

Compared with AGTCACTC, CTGAACAG is lower in “PBM E-score” value: 0.0223 for the first, -0.0256 for the second.

Compared with GACTCACA, CTGGAACA is higher in “PBM E-score” value: -0.0473 for the first, 0.061 for the second.

Compared with GTCCCGCA, GCGCTGCA is higher in “PBM E-score” value: -0.202 for the first, 0.0806 for the second.

First: CCCGCTGC
Second: CGCGCTGC
The “PBM E-score” value of the first is lower: -0.096 for the first, 0.0167 for the second.

Compared with GTCTTATA, ACAGGGCA is higher in “PBM E-score” value: 0.0235 for the first, 0.0341 for the second.

First: CACCTGTC
Second: AGCACTCC
The “PBM E-score” value of the first is lower: -0.0719 for the first, -0.0214 for the second.

First: GGTATTCA
Second: CAGATAAG
The “PBM E-score” value of the first is higher: 0.105 for the first, -0.0973 for the second.

Compared with CGCCCCCG, ACTTACGC is higher in “PBM E-score” value: -0.329 for the first, 0.0171 for the second.

First: TGGATGAA
Second: GACTCTGA
The “PBM E-score” value of the first is higher: 0.138 for the first, -0.0473 for the second.

Going from GTCGGGGA to AAGGCCCC, the “PBM E-score” value falls from 0.00829 to -0.164.

Going from GCAGGCGC to ATTCGAAC, the “PBM E-score” value rises from -0.0896 to 0.157.

Compared with GCGCACGC, ACAATCAC is higher in “PBM E-score” value: -0.12 for the first, 0.0412 for the second.

Going from AGGGAGCC to CTGGCTAA, the “PBM E-score” value rises from -0.352 to -0.0403.

Going from CAATGGTA to ACGAACAA, the “PBM E-score” value falls from 0.101 to 0.0319.

First: AATTAGGG
Second: ACTGTGTC
The “PBM E-score” value of the first is lower: -0.153 for the first, -0.0416 for the second.

First: GAAGAATA
Second: GCCACACA
The “PBM E-score” value of the first is lower: 0.0158 for the first, 0.0511 for the second.

Compared with CACGCACA, AGTGTAAC is lower in “PBM E-score” value: 0.105 for the first, -0.0776 for the second.

First: CGGGGACG
Second: CGGAGTAG
The “PBM E-score” value of the first is lower: -0.112 for the first, 0.0285 for the second.

Going from CCGAGGAG to AGATAGCT, the “PBM E-score” value rises from -0.213 to -0.138.

Compared with ACGAGGCG, GACAATTA is higher in “PBM E-score” value: 0.0373 for the first, 0.108 for the second.

First: ATACTCGG
Second: AAGAATAC
The “PBM E-score” value of the first is lower: 0.126 for the first, 0.143 for the second.

First: AGTGTTTC
Second: TGCTCACA
The “PBM E-score” value of the first is higher: 0.0887 for the first, 0.0149 for the second.

First: AGTTGAAC
Second: ATGCTGTG
The “PBM E-score” value of the first is higher: -0.0135 for the first, -0.052 for the second.

First: ATAACGTA
Second: CACGAACA
The “PBM E-score” value of the first is higher: 0.313 for the first, 0.141 for the second.

Compared with ATGTTTGA, TCCTGGCA is lower in “PBM E-score” value: 0.00735 for the first, -0.114 for the second.

Compared with CATGTATA, CGCCGGGA is lower in “PBM E-score” value: 0.101 for the first, -0.128 for the second.

Compared with GCGCTCCC, GCGAATCA is higher in “PBM E-score” value: -0.099 for the first, 0.139 for the second.

Going from ATGAGTGG to CCAAGGCC, the “PBM E-score” value falls from -0.0453 to -0.21.

Compared with GCTTAGAC, CAATAAAG is higher in “PBM E-score” value: -0.0654 for the first, 0.0519 for the second.

First: ACGCGCAT
Second: CCCCTGGA
The “PBM E-score” value of the first is higher: 0.00584 for the first, -0.235 for the second.

First: TAAGAGCA
Second: TCCGTGAA
The “PBM E-score” value of the first is higher: 0.0709 for the first, -0.139 for the second.

Compared with CTACTGGA, AGCGAACA is higher in “PBM E-score” value: -0.00915 for the first, 0.162 for the second.

From the supplement of paper PMC3334620
